Source: publication PMC10079926
No constants are given. Whether binding was seen depends on the method and setting. Binding seen in cells or lysates may run through a third protein. Some results given as binding are weak or reduced against the parent protein; the word gives no strength.

Amino acid sequences for entries named in this document (tags omitted).
UniProt Q07812: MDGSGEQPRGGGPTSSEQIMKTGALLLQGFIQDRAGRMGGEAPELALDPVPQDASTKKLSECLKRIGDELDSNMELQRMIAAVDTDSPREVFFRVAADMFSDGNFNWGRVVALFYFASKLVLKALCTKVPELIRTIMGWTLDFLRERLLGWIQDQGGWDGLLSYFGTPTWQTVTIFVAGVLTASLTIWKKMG
UniProt O00429: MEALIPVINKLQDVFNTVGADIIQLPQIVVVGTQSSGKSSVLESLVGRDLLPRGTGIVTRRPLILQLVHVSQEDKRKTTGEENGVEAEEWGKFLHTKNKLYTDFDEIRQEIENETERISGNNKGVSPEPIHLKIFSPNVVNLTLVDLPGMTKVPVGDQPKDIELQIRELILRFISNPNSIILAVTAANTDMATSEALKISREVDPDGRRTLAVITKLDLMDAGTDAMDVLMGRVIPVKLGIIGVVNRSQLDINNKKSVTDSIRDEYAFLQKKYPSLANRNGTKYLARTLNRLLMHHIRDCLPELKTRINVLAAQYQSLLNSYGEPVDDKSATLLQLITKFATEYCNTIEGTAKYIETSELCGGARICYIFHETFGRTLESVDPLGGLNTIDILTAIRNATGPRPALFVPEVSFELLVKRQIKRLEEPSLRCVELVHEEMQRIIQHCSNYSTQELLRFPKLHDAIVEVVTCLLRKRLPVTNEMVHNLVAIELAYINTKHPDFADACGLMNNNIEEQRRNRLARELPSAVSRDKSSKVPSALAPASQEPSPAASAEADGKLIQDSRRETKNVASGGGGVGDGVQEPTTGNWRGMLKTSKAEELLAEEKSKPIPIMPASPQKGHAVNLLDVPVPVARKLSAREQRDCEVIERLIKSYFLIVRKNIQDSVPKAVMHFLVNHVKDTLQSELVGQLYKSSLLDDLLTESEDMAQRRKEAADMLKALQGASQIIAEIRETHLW

Target: T1, PGAM5 (phosphoglycerate mutase family member 5, a mitochondrial phosphatase) (human (endogenous in Cal33 and HN6)) (UniProt Q96HS1)
T1 sequence: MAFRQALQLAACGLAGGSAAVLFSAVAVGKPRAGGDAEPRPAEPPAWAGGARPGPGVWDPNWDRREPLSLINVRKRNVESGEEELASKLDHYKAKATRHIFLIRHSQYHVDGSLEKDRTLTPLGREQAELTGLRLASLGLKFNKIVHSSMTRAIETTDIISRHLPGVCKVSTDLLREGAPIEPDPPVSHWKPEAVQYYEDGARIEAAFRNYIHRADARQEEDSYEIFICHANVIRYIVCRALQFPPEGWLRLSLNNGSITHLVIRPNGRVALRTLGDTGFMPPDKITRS
Test: co-IP; co-IP/WB of endogenous proteins in Cal33 and HN6 cells with vector or TIPE3-HA overexpression; IP lysis buffer, antibody overnight at 4 °C, protein A/G Sepharose beads

Substance | binding
BAX (from UniProt Q07812 1-192) | binds
DRP1 (dynamin-like protein) (from UniProt O00429 1-736) (enzyme) | binds
